{"source": "the supplement of paper PMC8728848", "test_in_all_cases": "glycan array binding signal (z-score within array); higher = stronger binding", "settings_in_all_cases": "glycan notation: IUPAC condensed, linker removed", "key": {"[1]": {"molecular_target": "Neu5Ac(a2-3)Gal6S(b1-4)[Fuc(a1-3)]GlcNAc", "summary_of_the_method": "(§1)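 From the Consortium for Functional Glycomics database, 3228 arrays were curated, keeping only those whose protein sequence was available. Binding is given as a within-array Z-score averaged across arrays sharing a protein sequence and across linkers. Negative Z-scores can be read as non-binding.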"}, "Neu5Ac(a2-3)GalNAc": {"molecular_target": "Neu5Ac(a2-3)GalNAc", "summary_of_the_method": "as §1"}, "[2]": {"molecular_target": "Neu5Ac(a2-3)GalNAc(b1-4)GlcNAc", "summary_of_the_method": "as §1"}, "[3]": {"molecular_target": "Neu5Ac(a2-3)[GalNAc(b1-4)]Gal(b1-4)Glc", "summary_of_the_method": "as §1"}, "[4]": {"molecular_target": "Neu5Ac(a2-3)[GalNAc(b1-4)]Gal(b1-4)GlcNAc", "summary_of_the_method": "as §1"}, "[5]": {"molecular_target": "Neu5Ac(a2-3)[Neu5Ac(a2-6)]GalNAc", "summary_of_the_method": "as §1"}, "Neu5Ac(a2-6)Gal": {"molecular_target": "Neu5Ac(a2-6)Gal", "summary_of_the_method": "as §1"}, "Neu5Ac(a2-6)Gal(b1-4)Glc": {"molecular_target": "Neu5Ac(a2-6)Gal(b1-4)Glc", "summary_of_the_method": "as §1"}, "[6]": {"molecular_target": "Neu5Ac(a2-6)Gal(b1-4)GlcNAc", "summary_of_the_method": "as §1"}, "[7]": {"molecular_target": "Neu5Ac(a2-6)Gal(b1-4)GlcNAc(b1-2)Man(a1-3)[Gal(b1-4)GlcNAc(b1-2)Man(a1-6)]Man(b1-4)GlcNAc(b1-4)GlcNAc", "summary_of_the_method": "as §1"}, "[8]": {"molecular_target": "Neu5Ac(a2-6)Gal(b1-4)GlcNAc(b1-2)Man(a1-3)[GlcNAc(b1-2)Man(a1-6)]Man(b1-4)GlcNAc(b1-4)GlcNAc", "summary_of_the_method": "as §1"}, "[9]": {"molecular_target": "Neu5Ac(a2-6)Gal(b1-4)GlcNAc(b1-2)Man(a1-3)[GlcNAc(b1-2)Man(b1-4)GlcNAc(b1-2)Man(a1-6)]Man(b1-4)GlcNAc(b1-4)GlcNAc", "summary_of_the_method": "as §1"}, "[10]": {"molecular_target": "Neu5Ac(a2-6)Gal(b1-4)GlcNAc(b1-2)Man(a1-3)[Neu5Ac(a2-6)Gal(b1-4)GlcNAc(b1-2)Man(a1-6)]Man(b1-4)GlcNAc(b1-4)GlcNAc", "summary_of_the_method": "as §1"}, "[11]": {"molecular_target": "Neu5Ac(a2-6)Gal(b1-4)GlcNAc(b1-2)Man(a1-6)[Gal(b1-4)GlcNAc(b1-2)Man(a1-3)]Man(b1-4)GlcNAc(b1-4)GlcNAc", "summary_of_the_method": "as §1"}, "[12]": {"molecular_target": "Neu5Ac(a2-6)Gal(b1-4)GlcNAc(b1-2)Man(a1-6)[GlcNAc(b1-2)Man(a1-3)]Man(b1-4)GlcNAc(b1-4)GlcNAc", "summary_of_the_method": "as §1"}, "[13]": {"molecular_target": "Neu5Ac(a2-6)Gal(b1-4)GlcNAc(b1-3)Gal(b1-4)GlcNAc", "summary_of_the_method": "as §1"}, "[14]": {"molecular_target": "Neu5Ac(a2-6)Gal(b1-4)GlcNAc(b1-3)Gal(b1-4)[Fuc(a1-3)]GlcNAc(b1-3)Gal(b1-4)[Fuc(a1-3)]GlcNAc", "summary_of_the_method": "as §1"}, "[15]": {"molecular_target": "Neu5Ac(a2-6)Gal(b1-4)GlcNAc6S", "summary_of_the_method": "as §1"}, "Neu5Ac(a2-6)GalNAc": {"molecular_target": "Neu5Ac(a2-6)GalNAc", "summary_of_the_method": "as §1"}, "[16]": {"molecular_target": "Neu5Ac(a2-6)GalNAc(b1-4)GlcNAc", "summary_of_the_method": "as §1"}, "Neu5Ac(a2-8)Neu5Ac": {"molecular_target": "Neu5Ac(a2-8)Neu5Ac", "summary_of_the_method": "as §1"}, "[17]": {"molecular_target": "Neu5Ac(a2-8)Neu5Ac(a2-3)Gal(b1-4)Glc", "summary_of_the_method": "as §1"}, "[18]": {"molecular_target": "Neu5Ac(a2-8)Neu5Ac(a2-3)[GalNAc(b1-4)]Gal(b1-4)Glc", "summary_of_the_method": "as §1"}, "[19]": {"molecular_target": "Neu5Ac(a2-8)Neu5Ac(a2-8)Neu5Ac", "summary_of_the_method": "as §1"}, "[20]": {"molecular_target": "Neu5Ac(a2-8)Neu5Ac(a2-8)Neu5Ac(a2-3)Gal(b1-4)Glc", "summary_of_the_method": "as §1"}, "[21]": {"molecular_target": "Neu5Ac(a2-8)Neu5Ac(a2-8)Neu5Ac(a2-3)[GalNAc(b1-4)]Gal(b1-4)Glc", "summary_of_the_method": "as §1"}, "[22]": {"molecular_target": "Neu5Ac(a2-8)Neu5Ac(a2-8)Neu5Ac(a2-8)Neu5Ac(a2-3)[GalNAc(b1-4)]Gal(b1-4)Glc", "summary_of_the_method": "as §1"}, "[23]": {"molecular_target": "Neu5Ac(b2-6)Gal(b1-4)GlcNAc", "summary_of_the_method": "as §1"}, "Neu5Ac(b2-6)GalNAc": {"molecular_target": "Neu5Ac(b2-6)GalNAc", "summary_of_the_method": "as §1"}, "[24]": {"molecular_target": "Neu5Ac9Ac(a2-6)Gal(b1-4)GlcNAc", "summary_of_the_method": "as §1"}, "[25]": {"molecular_target": "Neu5Gc(a2-3)Gal(b1-3)GlcNAc", "summary_of_the_method": "as §1"}, "[26]": {"molecular_target": "Neu5Gc(a2-3)Gal(b1-3)[Fuc(a1-4)]GlcNAc", "summary_of_the_method": "as §1"}, "Neu5Gc(a2-3)Gal(b1-4)Glc": {"molecular_target": "Neu5Gc(a2-3)Gal(b1-4)Glc", "summary_of_the_method": "as §1"}, "[27]": {"molecular_target": "Neu5Gc(a2-3)Gal(b1-4)GlcNAc", "summary_of_the_method": "as §1"}, "[28]": {"molecular_target": "Neu5Gc(a2-3)Gal(b1-4)[Fuc(a1-3)]GlcNAc", "summary_of_the_method": "as §1"}, "[29]": {"molecular_target": "Neu5Gc(a2-6)Gal(b1-4)GlcNAc", "summary_of_the_method": "as §1"}, "Neu5Gc(a2-6)GalNAc": {"molecular_target": "Neu5Gc(a2-6)GalNAc", "summary_of_the_method": "as §1"}, "[30]": {"molecular_target": "Neu5Gc(b2-6)Gal(b1-4)GlcNAc", "summary_of_the_method": "as §1"}}, "note": "This is one part of the list.", "data": [{"binder": "MCL (Mus musculus), Q9Z2H6 (protein) MWLEESQMKSKGTRHPQLIPCVFAVVSISFLSACFISTCLVTHHYFLRWTRGSVVKLSDYHTRVTCIREEPQPGATGGTWTCCPVSWRAFQSNCYFPLNDNQTWHESERNCSGMSSHLVTINTEAEQNFVTQLLDKRFSYFLGLADENVEGQWQWVDKTPFNPHTVFWEKGESNDFMEEDCVVLVHVHEKWVWNDFPCHFEVRRICKLPGITFNWKPSK", "values": [{"measurement": "glycan array binding signal (z-score)", "setting": "[1]", "result": 0.186}, {"measurement": "glycan array binding signal (z-score)", "setting": "Neu5Ac(a2-3)GalNAc", "result": -0.35}, {"measurement": "glycan array binding signal (z-score)", "setting": "[2]", "result": -1.14}, {"measurement": "glycan array binding signal (z-score)", "setting": "[3]", "result": -0.336}, {"measurement": "glycan array binding signal (z-score)", "setting": "[4]", "result": 0.129}, {"measurement": "glycan array binding signal (z-score)", "setting": "[5]", "result": -0.824}, {"measurement": "glycan array binding signal (z-score)", "setting": "Neu5Ac(a2-6)Gal", "result": 0.4}, {"measurement": "glycan array binding signal (z-score)", "setting": "Neu5Ac(a2-6)Gal(b1-4)Glc", "result": -0.186}, {"measurement": "glycan array binding signal (z-score)", "setting": "[6]", "result": -0.219}, {"measurement": "glycan array binding signal (z-score)", "setting": "[7]", "result": 0.161}, {"measurement": "glycan array binding signal (z-score)", "setting": "[8]", "result": 0.196}, {"measurement": "glycan array binding signal (z-score)", "setting": "[9]", "result": 2.17}, {"measurement": "glycan array binding signal (z-score)", "setting": "[10]", "result": 1.24}, {"measurement": "glycan array binding signal (z-score)", "setting": "[11]", "result": 0.141}, {"measurement": "glycan array binding signal (z-score)", "setting": "[12]", "result": 1.82}, {"measurement": "glycan array binding signal (z-score)", "setting": "[13]", "result": -0.165}, {"measurement": "glycan array binding signal (z-score)", "setting": "[14]", "result": 0.74}, {"measurement": "glycan array binding signal (z-score)", "setting": "[15]", "result": -0.081}, {"measurement": "glycan array binding signal (z-score)", "setting": "Neu5Ac(a2-6)GalNAc", "result": 0.241}, {"measurement": "glycan array binding signal (z-score)", "setting": "[16]", "result": -0.814}, {"measurement": "glycan array binding signal (z-score)", "setting": "Neu5Ac(a2-8)Neu5Ac", "result": -0.618}, {"measurement": "glycan array binding signal (z-score)", "setting": "[17]", "result": -0.48}, {"measurement": "glycan array binding signal (z-score)", "setting": "[18]", "result": -0.713}, {"measurement": "glycan array binding signal (z-score)", "setting": "[19]", "result": 0.123}, {"measurement": "glycan array binding signal (z-score)", "setting": "[20]", "result": 0.641}, {"measurement": "glycan array binding signal (z-score)", "setting": "[21]", "result": -0.346}, {"measurement": "glycan array binding signal (z-score)", "setting": "[22]", "result": 1.55}, {"measurement": "glycan array binding signal (z-score)", "setting": "[23]", "result": -0.473}, {"measurement": "glycan array binding signal (z-score)", "setting": "Neu5Ac(b2-6)GalNAc", "result": -0.879}, {"measurement": "glycan array binding signal (z-score)", "setting": "[24]", "result": 0.78}, {"measurement": "glycan array binding signal (z-score)", "setting": "[25]", "result": 0.192}, {"measurement": "glycan array binding signal (z-score)", "setting": "[26]", "result": -0.827}, {"measurement": "glycan array binding signal (z-score)", "setting": "Neu5Gc(a2-3)Gal(b1-4)Glc", "result": -0.554}, {"measurement": "glycan array binding signal (z-score)", "setting": "[27]", "result": 0.309}, {"measurement": "glycan array binding signal (z-score)", "setting": "[28]", "result": -0.147}, {"measurement": "glycan array binding signal (z-score)", "setting": "[29]", "result": 0.465}, {"measurement": "glycan array binding signal (z-score)", "setting": "Neu5Gc(a2-6)GalNAc", "result": -0.113}, {"measurement": "glycan array binding signal (z-score)", "setting": "[30]", "result": 0.767}]}]}
